Measured values: the supplement of paper PMC11732987, “Enantioselective OTUD7B fragment discovery through chemoproteomics screening and high-throughput optimisation” (Communications Chemistry, 2025)
This is one part of the list. The data scatter; read single values as rough.

Amino acid sequences for entries named in this document (tags omitted). A change or cut given only in a name is not applied to a line headed by its entry. Residues count along the entry.
UniProt O60318: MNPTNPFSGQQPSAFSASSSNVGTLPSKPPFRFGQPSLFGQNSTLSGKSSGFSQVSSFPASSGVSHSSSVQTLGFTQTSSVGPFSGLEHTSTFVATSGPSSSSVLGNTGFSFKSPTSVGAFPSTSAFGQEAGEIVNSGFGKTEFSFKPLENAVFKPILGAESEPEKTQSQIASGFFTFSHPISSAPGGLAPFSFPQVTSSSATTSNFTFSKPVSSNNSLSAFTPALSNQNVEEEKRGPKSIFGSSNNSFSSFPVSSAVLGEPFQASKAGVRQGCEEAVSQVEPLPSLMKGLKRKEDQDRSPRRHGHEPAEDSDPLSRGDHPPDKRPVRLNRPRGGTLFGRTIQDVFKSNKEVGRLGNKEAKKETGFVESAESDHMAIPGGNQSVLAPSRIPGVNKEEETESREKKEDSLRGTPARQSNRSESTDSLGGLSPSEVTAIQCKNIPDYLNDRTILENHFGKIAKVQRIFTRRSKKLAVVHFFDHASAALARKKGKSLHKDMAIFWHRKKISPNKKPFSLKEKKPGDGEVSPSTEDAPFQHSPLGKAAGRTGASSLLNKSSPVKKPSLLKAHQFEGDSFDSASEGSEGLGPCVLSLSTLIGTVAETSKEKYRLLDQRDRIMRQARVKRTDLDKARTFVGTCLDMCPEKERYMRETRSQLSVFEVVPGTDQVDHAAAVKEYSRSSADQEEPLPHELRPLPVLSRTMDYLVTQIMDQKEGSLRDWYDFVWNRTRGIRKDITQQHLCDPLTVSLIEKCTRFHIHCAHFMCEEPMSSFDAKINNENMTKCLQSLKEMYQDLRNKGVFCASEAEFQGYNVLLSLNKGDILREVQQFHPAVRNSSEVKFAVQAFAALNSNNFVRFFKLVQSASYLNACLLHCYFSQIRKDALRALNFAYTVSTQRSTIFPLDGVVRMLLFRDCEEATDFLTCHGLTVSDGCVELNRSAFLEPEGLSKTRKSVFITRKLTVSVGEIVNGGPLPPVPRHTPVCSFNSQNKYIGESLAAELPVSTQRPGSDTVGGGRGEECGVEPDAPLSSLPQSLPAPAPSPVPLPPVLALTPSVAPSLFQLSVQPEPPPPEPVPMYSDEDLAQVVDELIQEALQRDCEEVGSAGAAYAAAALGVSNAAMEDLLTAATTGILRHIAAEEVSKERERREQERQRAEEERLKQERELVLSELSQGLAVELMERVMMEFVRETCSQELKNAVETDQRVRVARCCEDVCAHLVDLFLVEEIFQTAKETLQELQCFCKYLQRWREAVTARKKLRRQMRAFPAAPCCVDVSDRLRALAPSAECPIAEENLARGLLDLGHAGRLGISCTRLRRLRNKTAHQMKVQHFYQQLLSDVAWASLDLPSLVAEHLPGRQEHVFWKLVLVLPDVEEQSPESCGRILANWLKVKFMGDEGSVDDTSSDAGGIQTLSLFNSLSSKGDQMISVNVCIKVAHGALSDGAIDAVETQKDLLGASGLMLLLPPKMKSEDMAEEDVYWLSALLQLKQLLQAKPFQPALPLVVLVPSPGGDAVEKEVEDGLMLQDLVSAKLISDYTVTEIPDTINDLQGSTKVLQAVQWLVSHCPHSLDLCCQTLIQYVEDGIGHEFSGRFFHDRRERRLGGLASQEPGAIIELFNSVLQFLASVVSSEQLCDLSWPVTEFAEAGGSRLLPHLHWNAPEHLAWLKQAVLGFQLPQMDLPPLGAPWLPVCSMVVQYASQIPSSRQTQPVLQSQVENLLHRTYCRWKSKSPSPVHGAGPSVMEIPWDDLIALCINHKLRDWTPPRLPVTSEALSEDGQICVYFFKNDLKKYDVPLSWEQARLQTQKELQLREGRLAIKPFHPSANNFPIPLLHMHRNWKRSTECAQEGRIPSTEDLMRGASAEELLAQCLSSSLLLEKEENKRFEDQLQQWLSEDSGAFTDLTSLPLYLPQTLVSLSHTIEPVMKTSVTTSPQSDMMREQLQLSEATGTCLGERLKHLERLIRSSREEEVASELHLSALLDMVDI
UniProt Q9UIS9, 503-528: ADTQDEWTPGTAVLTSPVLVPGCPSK
UniProt Q96L34: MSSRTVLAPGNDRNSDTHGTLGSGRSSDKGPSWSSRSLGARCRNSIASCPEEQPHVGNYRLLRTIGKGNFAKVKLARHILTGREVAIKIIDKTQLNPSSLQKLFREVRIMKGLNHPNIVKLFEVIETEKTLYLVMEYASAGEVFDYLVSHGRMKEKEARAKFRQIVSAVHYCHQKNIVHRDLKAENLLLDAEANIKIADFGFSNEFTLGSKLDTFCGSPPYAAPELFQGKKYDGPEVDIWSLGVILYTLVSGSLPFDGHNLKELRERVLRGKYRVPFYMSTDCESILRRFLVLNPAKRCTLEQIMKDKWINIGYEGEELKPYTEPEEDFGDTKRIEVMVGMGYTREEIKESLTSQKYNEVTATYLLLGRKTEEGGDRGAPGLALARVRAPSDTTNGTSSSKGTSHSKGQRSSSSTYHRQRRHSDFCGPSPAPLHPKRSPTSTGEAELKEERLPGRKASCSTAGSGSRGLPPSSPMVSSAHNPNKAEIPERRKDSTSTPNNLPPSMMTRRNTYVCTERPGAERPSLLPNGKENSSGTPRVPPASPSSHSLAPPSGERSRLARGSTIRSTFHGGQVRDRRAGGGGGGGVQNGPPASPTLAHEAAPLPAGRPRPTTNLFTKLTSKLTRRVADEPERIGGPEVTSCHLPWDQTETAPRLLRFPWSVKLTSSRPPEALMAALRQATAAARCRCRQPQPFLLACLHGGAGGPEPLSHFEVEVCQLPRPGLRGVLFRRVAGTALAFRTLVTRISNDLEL
UniProt Q13257, whole entry, looked up: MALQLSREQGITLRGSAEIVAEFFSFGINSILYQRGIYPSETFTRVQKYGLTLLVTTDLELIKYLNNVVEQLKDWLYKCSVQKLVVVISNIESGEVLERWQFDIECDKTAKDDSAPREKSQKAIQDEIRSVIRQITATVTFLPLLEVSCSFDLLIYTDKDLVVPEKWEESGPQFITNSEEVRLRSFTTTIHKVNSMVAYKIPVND
UniProt Q9BTE3: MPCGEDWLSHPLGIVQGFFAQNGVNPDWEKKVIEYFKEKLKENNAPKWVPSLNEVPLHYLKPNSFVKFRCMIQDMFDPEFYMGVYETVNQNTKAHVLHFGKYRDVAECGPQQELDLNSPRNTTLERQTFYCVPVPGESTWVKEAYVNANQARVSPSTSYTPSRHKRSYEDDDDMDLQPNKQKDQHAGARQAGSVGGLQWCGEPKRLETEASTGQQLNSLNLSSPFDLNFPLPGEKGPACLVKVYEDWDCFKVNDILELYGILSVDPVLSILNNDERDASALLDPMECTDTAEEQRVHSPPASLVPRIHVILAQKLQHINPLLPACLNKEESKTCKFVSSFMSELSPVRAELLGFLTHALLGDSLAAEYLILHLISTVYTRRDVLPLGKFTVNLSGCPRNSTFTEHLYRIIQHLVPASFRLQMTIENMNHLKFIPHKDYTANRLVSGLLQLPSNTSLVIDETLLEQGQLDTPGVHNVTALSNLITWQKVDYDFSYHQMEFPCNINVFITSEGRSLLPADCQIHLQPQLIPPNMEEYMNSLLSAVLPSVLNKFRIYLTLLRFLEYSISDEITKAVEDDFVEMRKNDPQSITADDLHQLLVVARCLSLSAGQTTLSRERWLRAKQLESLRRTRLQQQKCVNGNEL
UniProt P31153, 103-125: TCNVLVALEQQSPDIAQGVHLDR
UniProt P45983: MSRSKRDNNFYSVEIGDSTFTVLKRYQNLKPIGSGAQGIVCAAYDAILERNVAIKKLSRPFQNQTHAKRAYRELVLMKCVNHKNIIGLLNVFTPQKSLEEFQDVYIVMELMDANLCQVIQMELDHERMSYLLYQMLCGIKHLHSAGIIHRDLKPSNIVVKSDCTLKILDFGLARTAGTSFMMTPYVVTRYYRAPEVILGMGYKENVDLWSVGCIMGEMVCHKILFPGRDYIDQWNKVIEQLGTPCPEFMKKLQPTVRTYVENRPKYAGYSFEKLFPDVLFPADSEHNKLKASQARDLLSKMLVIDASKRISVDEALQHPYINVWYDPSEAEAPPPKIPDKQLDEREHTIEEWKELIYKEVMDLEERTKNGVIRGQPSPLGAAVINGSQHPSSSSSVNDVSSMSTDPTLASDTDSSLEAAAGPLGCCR
UniProt P27448: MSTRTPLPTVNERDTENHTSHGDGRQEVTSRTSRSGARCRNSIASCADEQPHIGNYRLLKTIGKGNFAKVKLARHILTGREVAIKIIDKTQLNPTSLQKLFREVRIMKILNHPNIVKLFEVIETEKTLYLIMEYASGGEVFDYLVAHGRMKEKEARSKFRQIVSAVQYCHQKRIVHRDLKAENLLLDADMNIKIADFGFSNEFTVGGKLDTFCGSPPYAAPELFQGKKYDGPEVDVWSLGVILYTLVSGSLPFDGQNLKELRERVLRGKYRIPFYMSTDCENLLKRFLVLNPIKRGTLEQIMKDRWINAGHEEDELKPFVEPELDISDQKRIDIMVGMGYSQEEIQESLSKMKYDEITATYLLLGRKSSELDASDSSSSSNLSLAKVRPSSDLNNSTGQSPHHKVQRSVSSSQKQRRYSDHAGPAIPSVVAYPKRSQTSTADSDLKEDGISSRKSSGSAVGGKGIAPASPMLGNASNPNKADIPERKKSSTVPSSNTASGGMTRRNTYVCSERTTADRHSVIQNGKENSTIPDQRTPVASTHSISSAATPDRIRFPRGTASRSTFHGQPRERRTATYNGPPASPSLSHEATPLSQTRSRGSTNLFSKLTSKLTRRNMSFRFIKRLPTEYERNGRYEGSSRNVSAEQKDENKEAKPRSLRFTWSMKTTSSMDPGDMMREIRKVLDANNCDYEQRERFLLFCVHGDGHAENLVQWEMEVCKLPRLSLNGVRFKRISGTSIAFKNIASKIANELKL
UniProt P33991, 197-216: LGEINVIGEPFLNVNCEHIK
UniProt Q9Y4K4: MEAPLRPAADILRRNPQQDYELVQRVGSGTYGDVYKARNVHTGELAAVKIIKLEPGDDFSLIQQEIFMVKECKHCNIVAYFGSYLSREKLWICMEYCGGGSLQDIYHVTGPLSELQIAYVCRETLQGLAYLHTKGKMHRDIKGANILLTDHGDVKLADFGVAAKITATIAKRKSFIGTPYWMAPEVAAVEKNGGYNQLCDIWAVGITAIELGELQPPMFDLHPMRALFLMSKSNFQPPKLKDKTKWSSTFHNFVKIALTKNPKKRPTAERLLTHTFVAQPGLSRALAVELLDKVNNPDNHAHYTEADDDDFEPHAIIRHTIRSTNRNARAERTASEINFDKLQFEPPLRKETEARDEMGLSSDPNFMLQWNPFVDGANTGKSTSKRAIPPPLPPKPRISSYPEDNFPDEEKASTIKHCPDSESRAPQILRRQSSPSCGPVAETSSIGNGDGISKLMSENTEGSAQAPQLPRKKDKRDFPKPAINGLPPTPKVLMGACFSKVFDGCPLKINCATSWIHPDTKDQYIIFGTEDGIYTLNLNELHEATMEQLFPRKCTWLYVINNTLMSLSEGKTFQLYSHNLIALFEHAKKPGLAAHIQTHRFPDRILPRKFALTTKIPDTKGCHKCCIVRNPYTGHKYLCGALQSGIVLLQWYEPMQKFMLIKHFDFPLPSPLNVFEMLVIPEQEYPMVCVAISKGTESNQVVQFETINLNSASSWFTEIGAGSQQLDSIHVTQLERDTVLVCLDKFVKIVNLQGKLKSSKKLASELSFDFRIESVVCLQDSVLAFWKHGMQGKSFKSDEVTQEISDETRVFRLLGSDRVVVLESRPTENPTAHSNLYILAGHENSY
UniProt Q7Z434: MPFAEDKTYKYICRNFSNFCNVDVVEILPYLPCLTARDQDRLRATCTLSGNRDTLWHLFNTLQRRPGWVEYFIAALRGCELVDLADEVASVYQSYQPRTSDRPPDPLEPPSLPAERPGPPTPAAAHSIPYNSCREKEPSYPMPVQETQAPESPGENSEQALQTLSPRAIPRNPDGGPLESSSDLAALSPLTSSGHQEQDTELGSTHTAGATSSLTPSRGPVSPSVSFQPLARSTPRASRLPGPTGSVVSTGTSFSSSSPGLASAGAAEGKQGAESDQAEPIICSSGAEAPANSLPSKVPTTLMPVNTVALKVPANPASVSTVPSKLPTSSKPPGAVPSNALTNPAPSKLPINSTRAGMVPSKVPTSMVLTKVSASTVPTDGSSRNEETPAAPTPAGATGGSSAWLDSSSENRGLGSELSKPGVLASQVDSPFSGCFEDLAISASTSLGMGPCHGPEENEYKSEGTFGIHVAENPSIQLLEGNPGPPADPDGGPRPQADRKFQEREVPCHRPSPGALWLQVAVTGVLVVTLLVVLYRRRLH
UniProt P20645: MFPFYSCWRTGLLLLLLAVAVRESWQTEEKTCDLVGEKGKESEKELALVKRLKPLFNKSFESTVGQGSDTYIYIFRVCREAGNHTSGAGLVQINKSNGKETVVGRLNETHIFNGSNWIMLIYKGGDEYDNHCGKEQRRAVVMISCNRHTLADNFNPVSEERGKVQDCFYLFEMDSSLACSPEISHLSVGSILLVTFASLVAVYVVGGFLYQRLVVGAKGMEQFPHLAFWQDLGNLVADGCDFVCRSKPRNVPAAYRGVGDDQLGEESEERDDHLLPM

Each target was assayed with ClCC(=O)N[C@@H]1CCCc2ccccc12 (assay: log2 mean competition ratio of IA-DTB cysteine labelling (DMSO/compound) (log2 ratio); higher = stronger cysteine engagement by compound). Details: 50 µM; treatment time: 4 h; cell line lysate: HEK293T.
Method: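 IA-DTB competitive cysteine chemoproteomics in HEK293T RIPA lysate. Lysates were treated with compound 29 or 30 at 50 or 200 µM for 4 h, then IA-DTB (500 µM, 1 h), trypsin-digested, NeutrAvidin-enriched and analysed by diaPASEF. Competition ratio = intensity DMSO / intensity compound (n=4 treated, n=64 DMSO); binding: mean log2 CR ≥ 1 and p ≤ 0.05 plus QC filters. Target is the cysteine site.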

| Target | log2 mean competition ratio |
| --- | --- |
| MCM3AP C981 (UniProt O60318) | -0.0367 |
| MACF1 C1522 | 0.285 |
| MAPRE3 C182 (UniProt Q9UPY8) | -0.000916 |
| MCC C202 (UniProt P23508) | -0.141 |
| MAP4 C635 | 0.0159 |
| LTA4H C147 (UniProt P09960) | -0.29 |
| LZTR1 C342 (UniProt Q8N653) | -0.16 |
| MCAT C361 (UniProt Q8IVS2) | 0.254 |
| MAP9 C239 | -0.136 |
| MBD1 C525 (UniProt Q9UIS9) | -0.0212 |
| MARK4 C459 (UniProt Q96L34) | -0.0413 |
| MAD2L1 C106 (UniProt Q13257) | -0.166 |
| MCMBP C325 (UniProt Q9BTE3) | 0.416 |
| MAP2K4 C266 (UniProt P45985) | 0.377 |
| MACF1 C5049 | 0.377 |
| MCM3AP C1839 (UniProt O60318) | -0.164 |
| MAGEE1 C429 | 0.305 |
| MAT2A C104 (UniProt P31153) | -0.139 |
| LRRC47 C249 (UniProt Q8N1G4) | 0.25 |

| Target | log2 mean competition ratio |
| --- | --- |
| MAPK8 C245 (UniProt P45983) | 0.0945 |
| MARK3 C510 (UniProt P27448) | -0.0888 |
| MACF1 C5131 | 0.199 |
| MCM4 C212 (UniProt P33991) | 0.00868 |
| MCM10 C369 (UniProt Q7L590) | -0.364 |
| MATR3 C806 (UniProt P43243) | 0.273 |
| LRPPRC C930 | 0.18 |
| MAPKAPK2 C114 (UniProt P49137) | 0.211 |
| LSS C636 (UniProt P48449) | -0.838 |
| MAP4K5 C505 (UniProt Q9Y4K4) | -0.0487 |
| LRRFIP1 C750 (UniProt Q32MZ4) | 0.0939 |
| MCM3AP C1945 (UniProt O60318) | 0.0594 |
| LUC7L2 C348 (UniProt Q9Y383) | 0.0624 |
| MARK4 C49 (UniProt Q96L34) | -0.0451 |
| MAVS C46 (UniProt Q7Z434) | 0.318 |
| M6PR C145 (UniProt P20645) | 0.0394 |
| LRRC40 C438 (UniProt Q9H9A6) | 0.177 |
| MAP1A C2191 (UniProt P78559) | 0.572 |
| MCM8 C235 | -0.0587 |

Same assay, conditions: 200 µM; treatment time: 4 h; cell line lysate: HEK293T

| Target | log2 mean competition ratio |
| --- | --- |
| MCM3AP C981 (UniProt O60318) | -0.00901 |
| MACF1 C1522 | -0.158 |
| MAPRE3 C182 (UniProt Q9UPY8) | -0.0104 |
| MCC C202 (UniProt P23508) | 0.185 |
| MAP4 C635 | -0.0188 |
| LTA4H C147 (UniProt P09960) | 0.118 |
| LZTR1 C342 (UniProt Q8N653) | -0.135 |
| MCAT C361 (UniProt Q8IVS2) | 0.0518 |
| MAP9 C239 | -0.229 |
| MBD1 C525 (UniProt Q9UIS9) | 0.0558 |
| MARK4 C459 (UniProt Q96L34) | 0.162 |
| MAD2L1 C106 (UniProt Q13257) | -0.0716 |
| MCMBP C325 (UniProt Q9BTE3) | 0.629 |
| MAP2K4 C266 (UniProt P45985) | 0.391 |
| MACF1 C5049 | 0.193 |
| MCM3AP C1839 (UniProt O60318) | 0.124 |
| MAGEE1 C429 | -0.241 |
| MAT2A C104 (UniProt P31153) | 0.229 |
| LRRC47 C249 (UniProt Q8N1G4) | -0.136 |

| Target | log2 mean competition ratio |
| --- | --- |
| MAPK8 C245 (UniProt P45983) | 0.37 |
| MARK3 C510 (UniProt P27448) | 0.0211 |
| MACF1 C5131 | -0.068 |
| MCM4 C212 (UniProt P33991) | 0.268 |
| MCM10 C369 (UniProt Q7L590) | 0.235 |
| MATR3 C806 (UniProt P43243) | -0.0586 |
| LRPPRC C930 | -0.245 |
| MAPKAPK2 C114 (UniProt P49137) | -0.282 |
| LSS C636 (UniProt P48449) | 0.278 |
| MAP4K5 C505 (UniProt Q9Y4K4) | -0.174 |
| LRRFIP1 C750 (UniProt Q32MZ4) | 0.069 |
| MCM3AP C1945 (UniProt O60318) | 0.236 |
| LUC7L2 C348 (UniProt Q9Y383) | 0.0522 |
| MARK4 C49 (UniProt Q96L34) | 0.199 |
| MAVS C46 (UniProt Q7Z434) | 0.00714 |
| M6PR C145 (UniProt P20645) | 0.341 |
| LRRC40 C438 (UniProt Q9H9A6) | -0.11 |
| MAP1A C2191 (UniProt P78559) | -0.0622 |
| MCM8 C235 | -0.269 |
